In PMC5327418:
No constants are given. Whether binding was seen depends on the method and setting. Binding seen in cells or lysates may run through a third protein. These calls come from enrichment with a bait or labelling near it, and not all partners need be listed.

Chains of the proteins cited; added tags and fusions are not shown.
UniProt P32569: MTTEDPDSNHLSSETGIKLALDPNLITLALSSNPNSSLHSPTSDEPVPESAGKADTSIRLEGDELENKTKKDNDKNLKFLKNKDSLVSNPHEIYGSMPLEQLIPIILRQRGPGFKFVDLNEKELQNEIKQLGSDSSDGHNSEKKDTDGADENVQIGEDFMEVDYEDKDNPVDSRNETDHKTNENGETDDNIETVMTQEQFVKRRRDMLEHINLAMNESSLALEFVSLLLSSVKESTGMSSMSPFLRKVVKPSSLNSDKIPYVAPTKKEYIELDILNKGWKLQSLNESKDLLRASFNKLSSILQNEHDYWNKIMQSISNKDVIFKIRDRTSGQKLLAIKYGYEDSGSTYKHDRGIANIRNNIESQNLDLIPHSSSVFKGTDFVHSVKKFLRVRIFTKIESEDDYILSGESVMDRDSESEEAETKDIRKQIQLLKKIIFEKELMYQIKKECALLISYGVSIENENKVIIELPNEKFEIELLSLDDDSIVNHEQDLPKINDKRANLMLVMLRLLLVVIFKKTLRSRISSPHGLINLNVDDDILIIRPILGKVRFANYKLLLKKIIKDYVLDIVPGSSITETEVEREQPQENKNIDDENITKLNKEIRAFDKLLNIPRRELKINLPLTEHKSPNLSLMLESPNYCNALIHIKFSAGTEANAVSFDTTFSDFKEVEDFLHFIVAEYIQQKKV

B1: Nop14 (protein, UniProt Q99207 1-810)
chain: MAGSQLKNLKAALKARGLTGQTNVKSKNKKNSKRQAKEYDREEKKKAIAEIREEFNPFEIKAARNKRRDGLPSKTADRIAVGKPGISKQIGEEQRKRAFEARKMMKNKRGGVIDKRFGERDKLLTEEEKMLERFTRERQSQSKRNANLFNLEDDEDDGDMFGDGLTHLGQSLSLEDELANDEEDFLASKRFNEDDAELQQPQRKKTKAEVMKEVIAKSKFYKQERQKAQGIMEDQIDNLDDNFEDVMSELMMTQPKKNPMEPKTDLDKEYDIKVKELQLDKRAAPSDRTKTEEEKNAEAEEKKRELEQQRLDRMNGMIELEEGEERGVEDLDDGFWENEEDYEDDNDGIADSDDDIKFEDQGRDEGFSQILKKKNISISCPRTHDALLDQVKKLDLDDHPKIVKNIIKAYQPKLAEGNKEKLGKFTAVLLRHIIFLSNQNYLKNVQSFKRTQNALISILKSLSEKYNRELSEECRDYINEMQARYKKNHFDALSNGDLVFFSIIGILFSTSDQYHLVITPALILMSQFLEQIKFNSLKRIAFGAVLVRIVSQYQRISKRYIPEVVYFFQKILLTFIVEKENQEKPLDFENIRLDSYELGLPLDVDFTKKRSTIIPLHTLSTMDTEAHPVDQCVSVLLNVMESLDATISTVWKSLPAFNEIILPIQQLLSAYTSKYSDFEKPRNILNKVEKLTKFTEHIPLALQNHKPVSIPTHAPKYEENFNPDKKSYDPDRTRSEINKMKAQLKKERKFTMKEIRKDAKFEARQRIEEKNKESSDYHAKMAHIVNTINTEEGAEKNKYERERKLRGGKK
B2: Rpf2 (protein, UniProt P36160 1-344)
chain: MIRTVKPKNARAKRALVKREAKLVENVKQALFIPGQSCNKNLHDIMVDLSALKKPDMKRFNRKNDIHPFEDMSPLEFFSEKNDCSLMVLMTSSKKRKNNMTFIRTFGYKIYDMIELMVADNFKLLSDFKKLTFTVGLKPMFTFQGAAFDTHPVYKQIKSLFLDFFRGESTDLQDVAGLQHVISMTIQGDFQDGEPLPNVLFRVYKLKSYKSDQGGKRLPRIELVEIGPRLDFKIGRIHTPSPDMVTEAHKKPKQLEMKTKKNVELDIMGDKLGRIHMGKQDLGKLQTRKMKGLKSKFDQGTEEGDGEVDEDYEDEASYSDDGQEYEEEFVSATDIEPSAKRQKK
B3: Utp22 (protein, UniProt P53254 1-1237)
chain: MATSVKRKASETSDQNIVKVQKKHSTQDSTTDNGSKENDHSSQAINERTVPEQENDESDTSPESNEVATNTAATRHNGKVTATESYDIHIARETAELFKSNIFKLQIDELLEQVKLKQKHVLKVEKFLHKLYDILQEIPDWEEKSLAEVDSFFKNKIVSVPFVDPKPIPQNTNYKFNYKKPDISLIGSFALKAGIYQPNGSSIDTLLTMPKELFEKKDFLNFRCLHKRSVYLAYLTHHLLILLKKDKLDSFLQLEYSYFDNDPLLPILRISCSKPTGDSLSDYNFYKTRFSINLLIGFPYKVFEPKKLLPNRNCIRIAQESKEQSLPATPLYNFSVLSSSTHENYLKYLYKTKKQTESFVEATVLGRLWLQQRGFSSNMSHSGSLGGFGTFEFTILMAALLNGGGINSNKILLHGFSSYQLFKGVIKYLATMDLCHDGHLQFHSNPENSSSSPASKYIDEGFQTPTLFDKSTKVNILTKMTVSSYQILKEYAGETLRMLNNVVQDQFSNIFLTNISRFDNLKYDLCYDVQLPLGKYNNLETSLAATFGSMERVKFITLENFLAHKITNVARYALGDRIKYIQIEMVGQKSDFPITKRKVYSNTGGNHFNFDFVRVKLIVNPSECDKLVTKGPAHSETMSTEAAVFKNFWGIKSSLRRFKDGSITHCCVWSTSSSEPIISSIVNFALQKHVSKKAQISNETIKKFHNFLPLPNLPSSAKTSVLNLSSFFNLKKSFDDLYKIIFQMKLPLSVKSILPVGSAFRYTSLCQPVPFAYSDPDFFQDVILEFETSPKWPDEITSLEKAKTAFLLKIQEELSANSSTYRSFFSRDESIPYNLEIVTLNILTPEGYGFKFRVLTERDEILYLRAIANARNELKPELEATFLKFTAKYLASVRHTRTLENISHSYQFYSPVVRLFKRWLDTHLLLGHITDELAELIAIKPFVDPAPYFIPGSLENGFLKVLKFISQWNWKDDPLILDLVKPEDDIRDTFETSIGAGSELDSKTMKKLSERLTLAQYKGIQMNFTNLRNSDPNGTHLQFFVASKNDPSGILYSSGIPLPIATRLTALAKVAVNLLQTHGLNQQTINLLFTPGLKDYDFVVDLRTPIGLKSSCGILSATEFKNITNDQAPSNFPENLNDLSEKMDPTYQLVKYLNLKYKNSLILSSRKYIGVNGGEKGDKNVITGLIKPLFKGAHKFRVNLDCNVKPVDDENVILNKEAIFHEIAAFGNDMVINFETD
B4: Rpc1 (protein, UniProt P04051 1-1460)
chain: MKEVVVSETPKRIKGLEFSALSAADIVAQSEVEVSTRDLFDLEKDRAPKANGALDPKMGVSSSSLECATCHGNLASCHGHFGHLKLALPVFHIGYFKATIQILQGICKNCSAILLSETDKRQFLHELRRPGVDNLRRMGILKKILDQCKKQRRCLHCGALNGVVKKAAAGAGSAALKIIHDTFRWVGKKSAPEKDIWVGEWKEVLAHNPELERYVKRCMDDLNPLKTLNLFKQIKSADCELLGIDATVPSGRPETYIWRYLPAPPVCIRPSVMMQDSPASNEDDLTVKLTEIVWTSSLIKAGLDKGISINNMMEHWDYLQLTVAMYINSDSVNPAMLPGSSNGGGKVKPIRGFCQRLKGKQGRFRGNLSGKRVDFSGRTVISPDPNLSIDEVAVPDRVAKVLTYPEKVTRYNRHKLQELIVNGPNVHPGANYLLKRNEDARRNLRYGDRMKLAKNLQIGDVVERHLEDGDVVLFNRQPSLHRLSILSHYAKIRPWRTFRLNECVCTPYNADFDGDEMNLHVPQTEEARAEAINLMGVKNNLLTPKSGEPIIAATQDFITGSYLISHKDSFYDRATLTQLLSMMSDGIEHFDIPPPAIMKPYYLWTGKQVFSLLIKPNHNSPVVINLDAKNKVFVPPKSKSLPNEMSQNDGFVIIRGSQILSGVMDKSVLGDGKKHSVFYTILRDYGPQEAANAMNRMAKLCARFLGNRGFSIGINDVTPADDLKQKKEELVEIAYHKCDELITLFNKGELETQPGCNEEQTLEAKIGGLLSKVREEVGDVCINELDNWNAPLIMATCGSKGSTLNVSQMVAVVGQQIISGNRVPDGFQDRSLPHFPKNSKTPQSKGFVRNSFFSGLSPPEFLFHAISGREGLVDTAVKTAETGYMSRRLMKSLEDLSCQYDNTVRTSANGIVQFTYGGDGLDPLEMEGNAQPVNFNRSWDHAYNITFNNQDKGLLPYAIMETANEILGPLEERLVRYDNSGCLVKREDLNKAEYVDQYDAERDFYHSLREYINGKATALANLRKSRGMLGLLEPPAKELQGIDPDETVPDNVKTSVSQLYRISEKSVRKFLEIALFKYRKARLEPGTAIGAIGAQSIGEPGTQMTLKTFHFAGVASMNVTLGVPRIKEIINASKVISTPIINAVLVNDNDERAARVVKGRVEKTLLSDVAFYVQDVYKDNLSFIQVRIDLGTIDKLQLELTIEDIAVAITRASKLKIQASDVNIIGKDRIAINVFPEGYKAKSISTSAKEPSENDVFYRMQQLRRALPDVVVKGLPDISRAVINIRDDGKRELLVEGYGLRDVMCTDGVIGSRTTTNHVLEVFSVLGIEAARYSIIREINYTMSNHGMSVDPRHIQLLGDVMTYKGEVLGITRFGLSKMRDSVLQLASFEKTTDHLFDAAFYMKKDAVEGVSECIILGQTMSIGTGSFKVVKGTNISEKDLVPKRCLFESLSNEAALKAN
B5: Rpc2 (protein, UniProt P22276 1-1149)
chain: MVAATKRRKTHIHKHVKDEAFDDLLKPVYKGKKLTDEINTAQDKWHLLPAFLKVKGLVKQHLDSFNYFVDTDLKKIIKANQLILSDVDPEFYLKYVDIRVGKKSSSSTKDYLTPPHECRLRDMTYSAPIYVDIEYTRGRNIIMHKDVEIGRMPIMLRSNKCILYDADESKMAKLNECPLDPGGYFIVNGTEKVILVQEQLSKNRIIVEADEKKGIVQASVTSSTHERKSKTYVITKNGKIYLKHNSIAEEIPIAIVLKACGILSDLEIMQLVCGNDSSYQDIFAVNLEESSKLDIYTQQQALEYIGAKVKTMRRQKLTILQEGIEAIATTVIAHLTVEALDFREKALYIAMMTRRVVMAMYNPKMIDDRDYVGNKRLELAGQLISLLFEDLFKKFNNDFKLSIDKVLKKPNRAMEYDALLSINVHSNNITSGLNRAISTGNWSLKRFKMERAGVTHVLSRLSYISALGMMTRISSQFEKSRKVSGPRALQPSQFGMLCTADTPEGEACGLVKNLALMTHITTDDEEEPIKKLCYVLGVEDITLIDSASLHLNYGVYLNGTLIGSIRFPTKFVTQFRHLRRTGKVSEFISIYSNSHQMAVHIATDGGRICRPLIIVSDGQSRVKDIHLRKLLDGELDFDDFLKLGLVEYLDVNEENDSYIALYEKDIVPSMTHLEIEPFTILGAVAGLIPYPHHNQSPRNTYQCAMGKQAIGAIAYNQFKRIDTLLYLMTYPQQPMVKTKTIELIDYDKLPAGQNATVAVMSYSGYDIEDALVLNKSSIDRGFGRCETRRKTTTVLKRYANHTQDIIGGMRVDENGDPIWQHQSLGPDGLGEVGMKVQSGQIYINKSVPTNSADAPNPNNVNVQTQYREAPVIYRGPEPSHIDQVMMSVSDNDQALIKVLLRQNRRPELGDKFSSRHGQKGVCGIIVKQEDMPFNDQGIVPDIIMNPHGFPSRMTVGKMIELISGKAGVLNGTLEYGTCFGGSKLEDMSKILVDQGFNYSGKDMLYSGITGECLQAYIFFGPIYYQKLKHMVLDKMHARARGPRAVLTRQPTEGRSRDGGLRLGEMERDCVIAYGASQLLLERLMISSDAFEVDVCDKCGLMGYSGWCTTCKSAENIIKMTIPYAAKLLFQELLSMNIAPRLRLEDIFQQ
B6: Tf3b (protein, UniProt P29056 1-596)
chain: MPVCKNCHGTEFERDLSNANNDLVCKACGVVSEDNPIVSEVTFGETSAGAAVVQGSFIGAGQSHAAFGGSSALESREATLNNARRKLRAVSYALHIPEYITDAAFQWYKLALANNFVQGRRSQNVIASCLYVACRKEKTHHMLIDFSSRLQVSVYSIGATFLKMVKKLHITELPLADPSLFIQHFAEKLDLADKKIKVVKDAVKLAQRMSKDWMFEGRRPAGIAGACILLACRMNNLRRTHTEIVAVSHVAEETLQQRLNEFKNTKAAKLSVQKFRENDVEDGEARPPSFVKNRKKERKIKDSLDKEEMFQTSEEALNKNPILTQVLGEQELSSKEVLFYLKQFSERRARVVERIKATNGIDGENIYHEGSENETRKRKLSEVSIQNEHVEGEDKETEGTEEKVKKVKTKTSEEKKENESGHFQDAIDGYSLETDPYCPRNLHLLPTTDTYLSKVSDDPDNLEDVDDEELNAHLLNEEASKLKERIWIGLNADFLLEQESKRLKQEADIATGNTSVKKKRTRRRNNTRSDEPTKTVDAAAAIGLMSDLQDKSGLHAALKAAEESGDFTTADSVKNMLQKASFSKKINYDAIDGLFR

Biological target: Med17-HA (S. cerevisiae (endogenous in S288c)) (UniProt P32569)
Assay: affinity purification with mass spectrometry; CoIP of Med17-HA on anti-HA magnetic beads from cryoground yeast lysate, 2 h at 4 °C; 20 mM HEPES pH 7.5, 300 mM KOAc, 10% glycerol, 0.01% NP-40, 6 mM MnSO4, 1 mM DTT, Cyanase nuclease; parallel control CoIP from 15N-labelled wild type cells, mixing after purification (MAP); GeLC-MS/MS, three biological replicates

Binder | binding
B1 | binds
B2 | binds
B3 | binds
B4 | binds
B5 | binds
B6 | binds
